Measurements from publication PMC12954580, “Multivalent glycoligands with lectin/enzyme dual specificity: self-deliverable glycosidase regulators” (Chemical Communications (Cambridge, England), 2019).
Structures were worked out from names or drawings and are uncertain.

By UniProt entry, the sequences of proteins in these tests, tags left out. Residues count along the entry.
UniProt P53341, whole entry: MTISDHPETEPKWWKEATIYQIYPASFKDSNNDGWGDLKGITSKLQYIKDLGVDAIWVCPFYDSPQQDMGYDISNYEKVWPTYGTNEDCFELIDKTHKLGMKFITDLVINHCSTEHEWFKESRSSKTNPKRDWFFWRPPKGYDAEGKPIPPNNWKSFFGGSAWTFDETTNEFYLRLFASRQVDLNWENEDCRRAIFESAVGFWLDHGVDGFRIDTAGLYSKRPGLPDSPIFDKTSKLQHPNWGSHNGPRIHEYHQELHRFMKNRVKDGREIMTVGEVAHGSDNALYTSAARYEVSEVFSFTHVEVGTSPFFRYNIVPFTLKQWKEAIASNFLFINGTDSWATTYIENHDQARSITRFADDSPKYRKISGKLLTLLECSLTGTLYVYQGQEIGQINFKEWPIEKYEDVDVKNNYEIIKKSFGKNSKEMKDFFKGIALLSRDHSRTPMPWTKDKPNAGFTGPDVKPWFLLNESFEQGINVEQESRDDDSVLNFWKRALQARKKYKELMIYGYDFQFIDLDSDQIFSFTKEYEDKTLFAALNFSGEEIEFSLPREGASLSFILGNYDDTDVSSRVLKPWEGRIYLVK
UniProt Q42656, 16-378 limits assumed: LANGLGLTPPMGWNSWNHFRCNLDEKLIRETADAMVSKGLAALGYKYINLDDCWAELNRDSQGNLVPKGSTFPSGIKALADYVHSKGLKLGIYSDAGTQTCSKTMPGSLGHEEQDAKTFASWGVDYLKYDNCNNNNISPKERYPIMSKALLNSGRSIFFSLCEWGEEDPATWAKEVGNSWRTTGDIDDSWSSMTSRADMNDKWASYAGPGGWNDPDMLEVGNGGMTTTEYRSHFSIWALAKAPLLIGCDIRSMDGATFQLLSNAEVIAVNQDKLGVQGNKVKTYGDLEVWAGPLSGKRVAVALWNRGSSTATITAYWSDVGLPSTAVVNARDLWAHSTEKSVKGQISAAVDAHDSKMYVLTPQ
UniProt C0HJB3, whole entry: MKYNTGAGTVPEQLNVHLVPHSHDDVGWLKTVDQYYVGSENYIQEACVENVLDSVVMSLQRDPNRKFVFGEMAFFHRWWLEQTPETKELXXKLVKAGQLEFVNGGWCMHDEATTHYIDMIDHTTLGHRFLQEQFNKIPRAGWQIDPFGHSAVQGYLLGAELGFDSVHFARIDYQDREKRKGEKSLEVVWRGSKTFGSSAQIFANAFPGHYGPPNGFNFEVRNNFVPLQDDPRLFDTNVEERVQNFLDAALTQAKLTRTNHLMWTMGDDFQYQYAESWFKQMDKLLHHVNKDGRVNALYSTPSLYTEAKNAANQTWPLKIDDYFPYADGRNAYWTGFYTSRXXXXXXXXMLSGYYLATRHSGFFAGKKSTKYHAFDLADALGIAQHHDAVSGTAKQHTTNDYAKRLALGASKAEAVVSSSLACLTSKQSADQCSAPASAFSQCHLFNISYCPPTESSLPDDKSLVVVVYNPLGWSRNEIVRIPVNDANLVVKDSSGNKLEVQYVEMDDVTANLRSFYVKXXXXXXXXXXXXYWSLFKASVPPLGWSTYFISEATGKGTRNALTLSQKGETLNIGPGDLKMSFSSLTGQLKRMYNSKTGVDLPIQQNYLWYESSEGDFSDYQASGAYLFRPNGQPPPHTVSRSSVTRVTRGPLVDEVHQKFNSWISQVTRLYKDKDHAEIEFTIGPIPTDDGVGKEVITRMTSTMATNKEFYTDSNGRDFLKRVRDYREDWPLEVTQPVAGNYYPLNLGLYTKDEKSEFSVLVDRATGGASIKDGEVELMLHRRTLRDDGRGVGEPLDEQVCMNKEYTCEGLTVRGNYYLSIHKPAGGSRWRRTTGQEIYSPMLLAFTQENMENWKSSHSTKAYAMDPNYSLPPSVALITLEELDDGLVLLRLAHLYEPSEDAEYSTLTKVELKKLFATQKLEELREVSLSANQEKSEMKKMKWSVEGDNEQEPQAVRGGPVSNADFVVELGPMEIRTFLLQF
UniProt P04062, 40-536 limits assumed: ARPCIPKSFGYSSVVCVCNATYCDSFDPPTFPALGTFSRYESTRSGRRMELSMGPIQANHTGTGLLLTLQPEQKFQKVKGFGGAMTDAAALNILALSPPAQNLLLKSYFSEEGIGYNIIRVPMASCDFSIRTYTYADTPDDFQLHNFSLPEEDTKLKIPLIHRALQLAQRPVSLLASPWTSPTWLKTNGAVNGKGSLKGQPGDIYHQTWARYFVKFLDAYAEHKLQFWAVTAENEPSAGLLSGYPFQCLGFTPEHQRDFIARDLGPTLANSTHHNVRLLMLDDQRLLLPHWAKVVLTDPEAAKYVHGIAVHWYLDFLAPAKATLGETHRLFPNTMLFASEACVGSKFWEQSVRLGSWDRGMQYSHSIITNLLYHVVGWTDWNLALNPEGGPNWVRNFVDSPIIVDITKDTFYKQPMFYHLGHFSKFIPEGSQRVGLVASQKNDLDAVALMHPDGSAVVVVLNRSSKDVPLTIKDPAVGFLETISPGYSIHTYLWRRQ
UniProt O00754, 50-1011 limits assumed: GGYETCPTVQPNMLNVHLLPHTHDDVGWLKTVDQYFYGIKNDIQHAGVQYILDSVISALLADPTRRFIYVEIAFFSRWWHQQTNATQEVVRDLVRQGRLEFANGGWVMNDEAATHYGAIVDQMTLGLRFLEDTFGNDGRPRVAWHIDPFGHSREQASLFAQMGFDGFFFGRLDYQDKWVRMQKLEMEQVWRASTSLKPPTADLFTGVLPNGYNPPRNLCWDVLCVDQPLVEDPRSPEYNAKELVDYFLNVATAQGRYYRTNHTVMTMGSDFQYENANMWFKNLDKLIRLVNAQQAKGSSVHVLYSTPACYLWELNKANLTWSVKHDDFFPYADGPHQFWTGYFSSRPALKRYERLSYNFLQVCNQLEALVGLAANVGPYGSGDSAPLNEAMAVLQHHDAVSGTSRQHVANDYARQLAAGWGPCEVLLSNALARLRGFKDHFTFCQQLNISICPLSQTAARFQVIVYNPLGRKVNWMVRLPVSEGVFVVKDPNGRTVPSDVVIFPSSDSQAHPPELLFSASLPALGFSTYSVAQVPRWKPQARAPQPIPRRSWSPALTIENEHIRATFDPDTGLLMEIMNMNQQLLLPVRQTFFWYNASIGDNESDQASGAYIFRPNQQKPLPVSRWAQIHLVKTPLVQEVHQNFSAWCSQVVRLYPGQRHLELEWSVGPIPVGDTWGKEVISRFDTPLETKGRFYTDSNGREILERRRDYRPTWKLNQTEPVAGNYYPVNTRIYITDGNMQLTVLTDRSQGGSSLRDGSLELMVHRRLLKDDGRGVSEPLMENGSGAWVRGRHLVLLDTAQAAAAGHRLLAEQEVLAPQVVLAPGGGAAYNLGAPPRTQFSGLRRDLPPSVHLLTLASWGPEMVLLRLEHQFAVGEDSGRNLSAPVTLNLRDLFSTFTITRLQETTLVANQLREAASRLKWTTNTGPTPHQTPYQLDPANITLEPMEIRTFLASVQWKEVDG
UniProt P22897, 19-1456 limits assumed: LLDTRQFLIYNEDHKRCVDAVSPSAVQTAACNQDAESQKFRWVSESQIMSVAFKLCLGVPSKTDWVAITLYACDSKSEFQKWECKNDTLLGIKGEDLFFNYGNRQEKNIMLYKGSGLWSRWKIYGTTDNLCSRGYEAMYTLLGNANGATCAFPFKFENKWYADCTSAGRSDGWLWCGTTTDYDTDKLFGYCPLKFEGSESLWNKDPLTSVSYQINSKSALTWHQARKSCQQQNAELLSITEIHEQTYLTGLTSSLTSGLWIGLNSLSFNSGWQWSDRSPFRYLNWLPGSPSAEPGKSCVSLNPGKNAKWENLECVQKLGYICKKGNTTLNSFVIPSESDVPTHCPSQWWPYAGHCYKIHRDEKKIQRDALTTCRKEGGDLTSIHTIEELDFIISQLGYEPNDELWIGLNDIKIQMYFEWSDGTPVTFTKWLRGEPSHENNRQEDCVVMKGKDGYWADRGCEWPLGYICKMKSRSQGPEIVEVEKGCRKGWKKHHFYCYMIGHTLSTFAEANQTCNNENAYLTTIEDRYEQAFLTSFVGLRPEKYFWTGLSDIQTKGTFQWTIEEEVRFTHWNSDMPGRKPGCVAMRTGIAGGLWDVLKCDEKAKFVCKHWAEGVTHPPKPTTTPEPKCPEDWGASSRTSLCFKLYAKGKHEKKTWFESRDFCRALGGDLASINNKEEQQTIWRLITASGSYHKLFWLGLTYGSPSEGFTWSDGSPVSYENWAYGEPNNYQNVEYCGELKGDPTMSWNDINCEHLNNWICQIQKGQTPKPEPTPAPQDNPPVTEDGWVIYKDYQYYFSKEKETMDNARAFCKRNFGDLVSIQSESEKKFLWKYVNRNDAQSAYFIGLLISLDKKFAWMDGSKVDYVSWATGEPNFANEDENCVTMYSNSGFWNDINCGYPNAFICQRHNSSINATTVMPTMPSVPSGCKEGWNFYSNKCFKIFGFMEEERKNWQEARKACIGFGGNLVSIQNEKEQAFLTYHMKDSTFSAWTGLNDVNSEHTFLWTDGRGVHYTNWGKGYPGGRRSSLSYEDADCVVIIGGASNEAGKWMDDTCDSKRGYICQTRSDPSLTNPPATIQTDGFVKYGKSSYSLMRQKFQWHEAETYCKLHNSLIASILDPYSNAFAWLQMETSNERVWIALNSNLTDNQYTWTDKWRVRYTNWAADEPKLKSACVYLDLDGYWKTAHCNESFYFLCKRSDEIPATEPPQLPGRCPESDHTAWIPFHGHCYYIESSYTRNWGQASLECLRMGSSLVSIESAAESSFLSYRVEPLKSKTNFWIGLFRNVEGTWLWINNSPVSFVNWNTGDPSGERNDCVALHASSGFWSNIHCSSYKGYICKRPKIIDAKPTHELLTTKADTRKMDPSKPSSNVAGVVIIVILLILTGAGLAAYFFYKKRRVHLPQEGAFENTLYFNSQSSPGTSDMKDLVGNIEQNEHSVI

Columns and labels:
[1] = target: α-glucosidase (S. cerevisiae) (Saccharomyces cerevisiae, UniProt P53341); assay: Inhibition studies with commercial enzymes (Ki), α-glucosidase; format: biochemical; details: read-out: Ki against α-glucosidase (S. cerevisiae); commercial enzyme, p-nitrophenyl glycopyranoside substrate, 37 °C; n.i. = no inhibition
Protocol: (§1) General Methods. All commercial chemicals were of reagent grade and were used without
(§2) further purification. 6-Azidohexyl α-D-manopyranoside (14),1 hepta(2,3-di-O-methyl-6-O-
(§3) propargyl)cyclomaltoheptaose (15),2 heptakis (2,6 -di-O-propargyl)cyclomaltoheptaose (16),3
(§4) pentynoic acid succinimide ester (17)4, the tetravalent mannosylated glycocluster 75 and 95 and
(§5) the azide-functionalized RAFT cyclopeptide 206 were prepared following the previously reported
(§6) protocols. All protected amino acids, Fmoc-Gly-Sasrin® and Rink Amide MBHA resins were
(§7) obtained from Advanced ChemTech Europe (Brussels, Belgium), BachemBiochimie SARL
(§8) (Voisins-Les-Bretonneux, France) and France Biochem S.A. (Meudon, France). […]
(§9) 600 controller and a Waters 2487 Dual Absorbance Detector equipped with a fraction collector. […]
(§10) monitoring at 214 nm and 250 nm using a linear A –B gradient. Optical rotations were measured […]
(§11) recorded at 500 (125.7) MHz with Bruker 500 DRX o BrukerAvance III spectrometers and […]
(§12) was carried out on Silica Gel 60. ESI mass spectra of βCD derivatives were recorded on a Bruker […]
(§13) glycopeptides were measured on an Esquire 3000 spectrometer from Bruker or on an Acquity […]
(§14) Inhibition studies with commercial enzymes. Inhibition constant (Ki) values were determined […]
(§15) rates. The absorbance of the resulting mixture was determined at 405 nm. […]
(§16) of Ki was determined from the slope of Dixon plots using a fixed concentration of substrate […]

[2] = tested on: β-glucosidase (bovine liver); assay: Inhibition studies with commercial enzymes (Ki), β-glucosidase; format: biochemical
Protocol: as §1, §2, §3, §4, §5, §6, §7
(Voisins-Les-Bretonneux, France) and France Biochem S.A. (Meudon, France). For peptides and
glycopeptides, analytical RP-HPLC was performed on a Waters alliance 2695 separation module,
equipped with a Waters 2489 UV/visible detector. Analyses were carried out at 1.23 mL/min
(Interchim […]-SERIE, C18, 5 µm, 125x3.0 mm) with UV monitoring at 214 nm and 250
nm using a linear A–B gradient (buffer A: 0.09% CF3CO2H in water; buffer B: 0.09% CF3CO2H in
90% acetonitrile). Preparative HPLC was performed on Waters equipment consisting of a Waters
600 controller and a Waters 2487 Dual Absorbance Detector equipped with a fraction collector.
Purifications were carried out at 22.0 mL/min (VP 250x21 mm nucleosil 100-7 C18) with UV
monitoring at 214 nm and 250 nm using a linear A –B gradient. Optical rotations were measured
at 20 ± 2 °C in 1-dm tubes on a Jasco P-2000 polarimeter. […]
as §11, §12, §13, §14, §15, §16
Ki determinations and enzyme inhibition mode were determined from the slope of Lineweaver - […]

[3] = target: α-galactosidase (green coffee beans) (Coffea arabica, UniProt Q42656); assay: Inhibition studies with commercial enzymes (Ki), α-galactosidase; format: biochemical, green coffee bean; details: commercial enzyme, 37 °C
Protocol: as §1, §2, §3, §4, §5, §6, §7, §8, §9, §10, §11, §12, §13, §14, §15, §16

[4] = target: α-mannosidase (jack beans) (Canavalia ensiformis, UniProt C0HJB3); assay: Inhibition studies with commercial enzymes (Ki), α-mannosidase; format: biochemical; details: read-out: Ki against α-mannosidase (jack beans); commercial enzyme, phosphate-citrate buffer, 37 °C; Table S1
Protocol: as §1, §2, §3, §4, §5, §6, §7, §8, §9, §10, §11, §12, §13, §14, §15, §16

[5] = target: lysosomal β-glucocerebrosidase (GCase) (Homo sapiens, UniProt P04062); assay: Human enzyme assay in fibroblast lysates, GCase; details: for IC50: read-out: IC50 GCase, cell lysates (human fibroblasts), 4-MU glycoside substrate, 37 °C, 60 min
[6] = target: lysosomal α-mannosidase (LAMAN) (Homo sapiens, UniProt O00754); assay: Human enzyme assay in fibroblast lysates, LAMAN; details: read-out: IC50 LAMAN (headed Manase in Fig. 3A); cell lysates (human fibroblasts), 4-MU glycoside substrate, 37 °C, 60 min
concanavalin A (ConA) = concanavalin A (ConA) (Canavalia ensiformis, UniProt P02866); assay: Enzyme-linked lectin assay (ELLA), HRP-ConA/mannan binding inhibition; set-up: species or system Concanavalia einsiformis; details: read-out: IC50 for HRP-ConA/mannan binding inhibition, Figure S19A, values printed over bars, axis log [IC50, M]
[7] = target: recombinant human MMR (macrophage mannose receptor) (Homo sapiens, UniProt P22897); assay: Modified ELLA: inhibition of rhMMR binding to yeast mannan; details: read-out: IC50 for inhibition of recombinant human MMR binding to yeast mannan, mean of three independent experiments ± SD

SMILES	Ki [1] [µM]	Inhibition behaviour towards mammalian β-glucosidase (Glcase) ([2]; bovine liver enzyme, in words)	Ki against β-glucosidase (bovine liver) ([2]; commercial enzyme, p-nitrophenyl glycopyranoside substrate, 37 °C, Table S1)	Ki against α-galactosidase (green coffee bean) [3]	Ki [4] [µM]	IC50 [5] [µM]	IC50 [6] [µM]	IC50 (concanavalin A (ConA)) [M]	Ki ([2]; read-out: Ki against mammalian β-glucosidase (Glcase), bovine liver enzyme) [µM]	GCase/lysosomal α-glucosidase anomeric selectivity ratio ([5]; cell (fibroblast) lysates)	IC50 [7] [µM]
OC[C@H]1O[C@H](OCCCCCCn2cc(COC[C@H]3O[C@@H]4O[C@H]5[C@H](O)[C@@H](OCc6cn(CCCCCCO[C@H]7O[C@H](CO)[C@@H](O)[C@H](O)[C@@H]7O)nn6)[C@@H](O[C@H]6[C@H](O)[C@@H](OCc7cn(CCCCCCO[C@H]8O[C@H](CO)[C@@H](O)[C@H](O)[C@@H]8O)nn7)[C@@H](O[C@H]7[C@H](O)[C@@H](OCc8cn(CCCCCCO[C@H]9O[C@H](CO)[C@@H](O)[C@H](O)[C@@H]9O)nn8)[C@@H](O[C@H]8[C@H](O)[C@@H](OCc9cn(CCCCCCO[C@H]%10O[C@H](CO)[C@@H](O)[C@H](O)[C@@H]%10O)nn9)[C@@H](O[C@H]9[C@H](O)[C@@H](OCc%10cn(CCCCCCO[C@H]%11O[C@H](CO)[C@@H](O)[C@H](O)[C@@H]%11O)nn%10)[C@@H](O[C@H]%10[C@H](O)[C@@H](OCc%11cn(CCCCCCO[C@H]%12O[C@H](CO)[C@@H](O)[C@H](O)[C@@H]%12O)nn%11)[C@@H](O[C@H]3[C@H](O)[C@H]4OCc3cn(CCCCCCO[C@H]4O[C@H](CO)[C@@H](O)[C@H](O)[C@@H]4O)nn3)O[C@@H]%10COCc3cn(CCCCCCO[C@H]4O[C@H](CO)[C@@H](O)[C@H](O)[C@@H]4O)nn3)O[C@@H]9COCc3cn(CCCCCCO[C@H]4O[C@H](CO)[C@@H](O)[C@H](O)[C@@H]4O)nn3)O[C@@H]8COCc3cn(CCCCCCO[C@H]4O[C@H](CO)[C@@H](O)[C@H](O)[C@@H]4O)nn3)O[C@@H]7COCc3cn(CCCCCCO[C@H]4O[C@H](CO)[C@@H](O)[C@H](O)[C@@H]4O)nn3)O[C@@H]6COCc3cn(CCCCCCO[C@H]4O[C@H](CO)[C@@H](O)[C@H](O)[C@@H]4O)nn3)O[C@@H]5COCc3cn(CCCCCCO[C@H]4O[C@H](CO)[C@@H](O)[C@H](O)[C@@H]4O)nn3)nn2)[C@@H](O)[C@@H](O)[C@@H]1O	300	cancelled	n.i.	n.i.	118	> 100	11	1.2e-05	–	–	–
CO[C@@H]1[C@@H](OC)[C@H]2O[C@H]3[C@H](OC)[C@@H](OC)[C@@H](O[C@H]4[C@H](OC)[C@@H](OC)[C@@H](O[C@H]5[C@H](OC)[C@@H](OC)[C@@H](O[C@H]6[C@H](OC)[C@@H](OC)[C@@H](O[C@H]7[C@H](OC)[C@@H](OC)[C@@H](O[C@H]8[C@H](OC)[C@@H](OC)[C@@H](O[C@@H]1[C@@H](COCc1cn(CCCCCCO[C@H]9O[C@H](CO)[C@@H](O)[C@H](O)[C@@H]9O)nn1)O2)O[C@@H]8COCc1cn(CCCCCCO[C@H]2O[C@H](CO)[C@@H](O)[C@H](O)[C@@H]2O)nn1)O[C@@H]7COCc1cn(CCCCCCO[C@H]2O[C@H](CO)[C@@H](O)[C@H](O)[C@@H]2O)nn1)O[C@@H]6COCc1cn(CCCCCCO[C@H]2O[C@H](CO)[C@@H](O)[C@H](O)[C@@H]2O)nn1)O[C@@H]5COCc1cn(CCCCCCO[C@H]2O[C@H](CO)[C@@H](O)[C@H](O)[C@@H]2O)nn1)O[C@@H]4COCc1cn(CCCCCCO[C@H]2O[C@H](CO)[C@@H](O)[C@H](O)[C@@H]2O)nn1)O[C@@H]3COCc1cn(CCCCCCO[C@H]2O[C@H](CO)[C@@H](O)[C@H](O)[C@@H]2O)nn1	129	–	–	n.i.	451	0.1	> 100	0.00015	7.3	over 100	1.8
